# In the supplement of paper PMC8728848:
# The other results are listed elsewhere or left out.
# B1: YghJ (Escherichia coli), E3PJ90 (protein)
# chain: MNKKFKYKKSLLAAILSATLLAGCDGGGSGSSSDTPPVDSGTGSLPEVKPDPTPNPEPTPEPTPDPEPTPEPIPDPEPTPEPEPEPVPTKTGYLTLGGSQRVTGATCNGESSDGFTFKPGEDVTCVAGNTTIATFNTQSEAARSLRAVEKVSFSLEDAQELAGSDDKKSNAVSLVTSSNSCPANTEQVCLTFSSVIESKRFDSLYKQIDLAPEEFKKLVNEEVENNAATDKAPSTHTSPVVPVTTPGTKPDLNASFVSANAEQFYQYQPTEIILSEGRLVDSQGYGVAGVNYYTNSGRGVTGENGEFSFSWGEAISFGIDTFELGSVRGNKSTIALTELGDEVRGANIDQLIHRYSTTGQNNTRVVPDDVRKVFAEYPNVINEIINLSLSNGATLGEGEQVVNLPNEFIEQFNTGQAKEIDTAICAKTDGCNEARWFSLTTRNVNDGQIQGVINKLWGVDTNYKSVSKFHVFHDSTNFYGSTGNARGQAVVNISNAAFPILMARNDKNYWLAFGEKRAWDKNELAYITEAPSIVRPENVTRETASFNLPFISLGQVGDGKLMVIGNPHYNSILRCPNGYSWNGGVNKDGQCTLNSDPDDMKNFMENVLRYLSNDRWLPDAKSSMTVGTNLETVYFKKHGQVLGNSAPFAFHKDFTGITVKPMTSYGNLNPDEVPLLILNGFEYVTQWGSDPYSIPLRADTSKPKLTQQDVTDLIAYMNKGGSVLIMENVMSNLKEESASGFVRLLDAAGLSMALNKSVVNNDPQGYPDRVRQRRSTPIWVYERYPAVDGKPPYTIDDTTKEVIWKYQQENKPDDKPKLEVASWQEEVEGKQVTQFAFIDEADHKTPESLAAAKQRILDAFPGLEVCKDSDYHYEVNCLEYRPGTDVPVTGGMYVPQYTQLDLSADTAKAMLQAADLGTNIQRLYQHELYFRTNGRQGERLNSVDLERLYQNMSVWLWNETKYRYEEGKEDELGFKTFTEFLNCYTNNAYVGTQCSAELKKSLIDNKMIYGEESSKAGMMNPSYPLNYMEKPLTRLMLGRSWWDLNIKVDVEKYPGVVNTNGETVTQNINLYSAPTKWFAGNMQSTGLWAPAQQEVSIESKSTVPVTVTVALADDLTGREKHEVSLNRPPRVTKTYDLKANDKVTFKVPYGGLIYIKGDSKEVQSADFTFTGVVKAPFYKDGKWQHDLNSPAPLGELESASFVYTTPKKNLNASNYTGGLEQFANDLDTFASSMNDFYGRDSEDGKHRMFTYKNLPGHKHRFANDVQISIGDAHSGYPVMNSSFSPNSTTLPTTPLNDWLIWHEVGHNAAETPLTVPGATEVANNVLALYMQDRYLGKMNRVADDITVAPEYLEESNGQAWARGGAGDRLLMYAQLKEWAEKNFDIKKWYPDGTPLPEFYSEREGMKGWNLFQLMHRKARGDEVSNDKFGGKNYCAESNGNAADTLMLCASWVAQTDLSEFFKKWNPGANAYQLPGASEMSFEGGVSQSAYNTLASLDLPKPEQGPETINQVTEHKMSAE
# Experiments:
# Assay in all cases: glycan array binding signal (z-score within array); higher = stronger binding
# Details in all cases: glycan notation: IUPAC condensed, linker removed
# [1] = target: Neu5Ac(a2-3)Gal(b1-4)GlcNAc(b1-6)GalNAc
# Outline: (§1)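 Negative Z-scores can be read as non-binding. The Z-score is calculated within each array and then averaged across arrays of one protein sequence at different concentrations or buffers and across linkers. Arrays, 3228 in all, were curated from the Consortium for Functional Glycomics database and kept only where the protein sequence was available.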
# [2] = target: Neu5Ac(a2-3)Gal(b1-4)GlcNAc(b1-6)[Gal(b1-3)]GalNAc
# Outline: as §1
# [3] = target: Neu5Ac(a2-3)Gal(b1-4)GlcNAc(b1-6)[Neu5Ac(a2-3)Gal(b1-3)]GalNAc
# Outline: as §1
# [4] = target: Neu5Ac(a2-3)Gal(b1-4)GlcNAc6S
# Outline: as §1
# [5] = target: Neu5Ac(a2-3)Gal(b1-4)[Fuc(a1-3)]GlcNAc
# Outline: as §1
# [6] = target: Neu5Ac(a2-3)Gal(b1-4)[Fuc(a1-3)]GlcNAc(b1-2)Man
# Outline: as §1
# [7] = target: Neu5Ac(a2-3)Gal(b1-4)[Fuc(a1-3)]GlcNAc(b1-3)Gal
# Outline: as §1
# [8] = target: Neu5Ac(a2-3)Gal(b1-4)[Fuc(a1-3)]GlcNAc(b1-3)Gal(b1-4)GlcNAc
# Outline: as §1
# [9] = target: Neu5Ac(a2-3)Gal(b1-4)[Fuc(a1-3)]GlcNAc(b1-3)Gal(b1-4)[Fuc(a1-3)]GlcNAc(b1-3)Gal(b1-4)[Fuc(a1-3)]GlcNAc
# Outline: as §1
# [10] = target: Neu5Ac(a2-3)Gal(b1-4)[Fuc(a1-3)]GlcNAc(b1-3)GalNAc
# Outline: as §1
# [11] = target: Neu5Ac(a2-3)Gal(b1-4)[Fuc(a1-3)]GlcNAc(b1-6)[Gal(b1-3)]GalNAc
# Outline: as §1
# [12] = target: Neu5Ac(a2-3)Gal(b1-4)[Fuc(a1-3)]GlcNAc(b1-6)[Neu5Ac(a2-3)Gal(b1-3)]GalNAc
# Outline: as §1
# [13] = target: Neu5Ac(a2-3)Gal(b1-4)[Fuc(a1-3)]GlcNAc6S
# Outline: as §1
# [14] = target: Neu5Ac(a2-3)Gal6S(b1-4)GlcNAc
# Outline: as §1
# [15] = target: Neu5Ac(a2-3)Gal6S(b1-4)[Fuc(a1-3)]GlcNAc
# Outline: as §1
# Neu5Ac(a2-3)GalNAc = target: Neu5Ac(a2-3)GalNAc
# Outline: as §1
# [16] = target: Neu5Ac(a2-3)GalNAc(b1-4)GlcNAc
# Outline: as §1
# [17] = target: Neu5Ac(a2-3)[GalNAc(b1-4)]Gal(b1-4)Glc
# Outline: as §1
# [18] = target: Neu5Ac(a2-3)[GalNAc(b1-4)]Gal(b1-4)GlcNAc
# Outline: as §1
# [19] = target: Neu5Ac(a2-3)[GalNAc(b1-4)]Gal(b1-4)GlcNAc(b1-3)GalNAc
# Outline: as §1
# [20] = target: Neu5Ac(a2-3)[Neu5Ac(a2-6)]GalNAc
# Outline: as §1
# Neu5Ac(a2-6)Gal = target: Neu5Ac(a2-6)Gal
# Outline: as §1
# [21] = target: Neu5Ac(a2-6)Gal(b1-3)GlcNAc(b1-3)[Gal(b1-4)GlcNAc(b1-6)]Gal(b1-4)Glc
# Outline: as §1
# Neu5Ac(a2-6)Gal(b1-4)Glc = target: Neu5Ac(a2-6)Gal(b1-4)Glc
# Outline: as §1
# [22] = target: Neu5Ac(a2-6)Gal(b1-4)GlcNAc
# Outline: as §1
# [23] = target: Neu5Ac(a2-6)Gal(b1-4)GlcNAc(b1-2)Man
# Outline: as §1
# [24] = target: Neu5Ac(a2-6)Gal(b1-4)GlcNAc(b1-2)Man(a1-3)Man(b1-4)GlcNAc(b1-4)GlcNAc
# Outline: as §1
# [25] = target: Neu5Ac(a2-6)Gal(b1-4)GlcNAc(b1-2)Man(a1-3)[Gal(b1-4)GlcNAc(b1-2)Man(a1-6)]Man(b1-4)GlcNAc(b1-4)GlcNAc
# Outline: as §1
# [26] = target: Neu5Ac(a2-6)Gal(b1-4)GlcNAc(b1-2)Man(a1-3)[GlcNAc(b1-2)Man(a1-6)]Man(b1-4)GlcNAc(b1-4)GlcNAc
# Outline: as §1
# [27] = target: Neu5Ac(a2-6)Gal(b1-4)GlcNAc(b1-2)Man(a1-3)[GlcNAc(b1-4)][Neu5Ac(a2-6)Gal(b1-4)GlcNAc(b1-2)Man(a1-6)]Man(b1-4)GlcNAc(b1-4)GlcNAc
# Outline: as §1
binder,measurement,setting,value
B1,glycan array binding signal (z-score),[1],1.94
same,glycan array binding signal (z-score),[2],-0.92
same,glycan array binding signal (z-score),[3],-0.991
same,glycan array binding signal (z-score),[4],-0.498
same,glycan array binding signal (z-score),[5],-0.663
same,glycan array binding signal (z-score),[6],0.386
same,glycan array binding signal (z-score),[7],-1.23
same,glycan array binding signal (z-score),[8],1.47
same,glycan array binding signal (z-score),[9],0.993
same,glycan array binding signal (z-score),[10],1.46
same,glycan array binding signal (z-score),[11],0.474
same,glycan array binding signal (z-score),[12],0.655
same,glycan array binding signal (z-score),[13],-0.945
same,glycan array binding signal (z-score),[14],0.695
same,glycan array binding signal (z-score),[15],-2.1
same,glycan array binding signal (z-score),Neu5Ac(a2-3)GalNAc,-1.18
same,glycan array binding signal (z-score),[16],-1
same,glycan array binding signal (z-score),[17],-0.367
same,glycan array binding signal (z-score),[18],0.585
same,glycan array binding signal (z-score),[19],-0.417
same,glycan array binding signal (z-score),[20],-0.806
same,glycan array binding signal (z-score),Neu5Ac(a2-6)Gal,-0.16
same,glycan array binding signal (z-score),[21],-0.01
same,glycan array binding signal (z-score),Neu5Ac(a2-6)Gal(b1-4)Glc,-0.516
same,glycan array binding signal (z-score),[22],-0.475
same,glycan array binding signal (z-score),[23],0.202
same,glycan array binding signal (z-score),[24],-1
same,glycan array binding signal (z-score),[25],0.304
same,glycan array binding signal (z-score),[26],-0.403
same,glycan array binding signal (z-score),[27],0.078

# A section taken from the entries so far, for reference:
binder,measurement,setting,value
B1,glycan array binding signal (z-score),[11],0.474
same,glycan array binding signal (z-score),[12],0.655
